Chains of the proteins cited; added tags and fusions are not shown.
UniProt O35274: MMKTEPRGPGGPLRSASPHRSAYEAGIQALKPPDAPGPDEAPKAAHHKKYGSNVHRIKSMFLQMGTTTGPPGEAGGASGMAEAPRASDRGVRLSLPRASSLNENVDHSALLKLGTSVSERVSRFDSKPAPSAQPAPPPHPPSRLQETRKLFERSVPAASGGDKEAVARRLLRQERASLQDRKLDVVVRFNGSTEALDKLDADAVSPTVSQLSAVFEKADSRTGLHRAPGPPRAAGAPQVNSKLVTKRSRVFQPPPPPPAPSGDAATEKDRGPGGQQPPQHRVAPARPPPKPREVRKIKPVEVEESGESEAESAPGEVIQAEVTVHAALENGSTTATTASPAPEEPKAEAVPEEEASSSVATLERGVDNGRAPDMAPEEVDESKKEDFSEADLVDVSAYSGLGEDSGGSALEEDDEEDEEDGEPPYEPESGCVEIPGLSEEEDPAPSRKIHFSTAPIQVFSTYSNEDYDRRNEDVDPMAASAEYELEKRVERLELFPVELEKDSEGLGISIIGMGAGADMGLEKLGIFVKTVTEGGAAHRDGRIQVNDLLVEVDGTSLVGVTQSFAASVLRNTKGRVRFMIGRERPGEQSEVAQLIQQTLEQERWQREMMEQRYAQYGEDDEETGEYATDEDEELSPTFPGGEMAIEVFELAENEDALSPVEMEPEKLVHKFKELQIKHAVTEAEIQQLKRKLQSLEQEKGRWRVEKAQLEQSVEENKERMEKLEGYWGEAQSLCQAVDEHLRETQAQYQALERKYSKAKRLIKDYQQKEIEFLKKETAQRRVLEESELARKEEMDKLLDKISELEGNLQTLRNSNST
UniProt P61765: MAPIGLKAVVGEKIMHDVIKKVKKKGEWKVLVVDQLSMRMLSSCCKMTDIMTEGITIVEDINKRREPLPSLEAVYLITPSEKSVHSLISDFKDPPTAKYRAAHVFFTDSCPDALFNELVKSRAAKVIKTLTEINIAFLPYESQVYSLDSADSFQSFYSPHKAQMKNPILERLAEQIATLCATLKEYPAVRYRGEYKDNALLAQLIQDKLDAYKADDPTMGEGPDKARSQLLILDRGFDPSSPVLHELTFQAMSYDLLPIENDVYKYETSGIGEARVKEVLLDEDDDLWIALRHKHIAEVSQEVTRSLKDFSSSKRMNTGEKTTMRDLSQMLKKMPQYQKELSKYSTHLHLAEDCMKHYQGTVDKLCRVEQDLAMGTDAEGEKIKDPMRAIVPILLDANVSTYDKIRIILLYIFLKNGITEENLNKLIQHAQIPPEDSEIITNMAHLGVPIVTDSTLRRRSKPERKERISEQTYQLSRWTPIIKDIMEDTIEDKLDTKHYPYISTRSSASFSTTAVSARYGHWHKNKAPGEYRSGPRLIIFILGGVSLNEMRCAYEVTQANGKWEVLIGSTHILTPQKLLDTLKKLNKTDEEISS

According to paper PMC10897203:

Biological target: T1, GFP-DDHD2 (pEGFP-C1-DDHD2^WT) (UniProt O94830)
T1 sequence: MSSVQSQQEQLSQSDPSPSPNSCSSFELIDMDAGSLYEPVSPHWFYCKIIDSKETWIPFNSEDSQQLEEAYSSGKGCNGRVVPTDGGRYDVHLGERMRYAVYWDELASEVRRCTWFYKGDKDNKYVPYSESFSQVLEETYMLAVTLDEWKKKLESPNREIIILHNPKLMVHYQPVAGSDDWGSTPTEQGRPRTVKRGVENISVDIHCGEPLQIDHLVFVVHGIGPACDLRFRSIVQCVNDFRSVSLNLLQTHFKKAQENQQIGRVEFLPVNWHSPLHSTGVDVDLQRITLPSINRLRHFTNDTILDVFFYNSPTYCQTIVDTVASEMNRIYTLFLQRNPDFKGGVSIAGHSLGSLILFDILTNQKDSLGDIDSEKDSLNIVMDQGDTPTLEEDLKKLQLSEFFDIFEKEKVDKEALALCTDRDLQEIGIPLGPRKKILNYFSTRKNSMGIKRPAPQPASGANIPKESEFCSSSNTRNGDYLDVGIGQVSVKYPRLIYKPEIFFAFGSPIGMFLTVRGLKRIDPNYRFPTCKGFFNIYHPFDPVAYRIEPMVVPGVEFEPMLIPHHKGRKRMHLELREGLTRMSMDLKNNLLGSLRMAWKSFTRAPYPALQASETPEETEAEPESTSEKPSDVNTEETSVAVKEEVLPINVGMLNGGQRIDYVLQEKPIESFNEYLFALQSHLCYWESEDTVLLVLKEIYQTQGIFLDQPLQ
Experiment: affinity purification with mass spectrometry; anti-GFP magnetic beads on lysate (0.5% NP-40, 150 mM NaCl) of PC12 cells transfected with GFP-tagged DDHD2, resting state; tryptic digest, untargeted high-resolution tandem MS (HRMS), 1% FDR; proteins found in non-GFP process controls removed

binding	Substance
binds	Ppp1r9b, endogenous in PC12 cells (from UniProt O35274 1-817)
binds	Syntaxin-binding protein 1 (STXBP1), endogenous in PC12 cells (from UniProt P61765 1-594)

These are yes or no findings as the source states them, for the method shown. Binding seen in cells or lysates may run through a third protein. Here binding means that the protein was enriched with, or labelled near, the bait; the list need not be complete. Tags and fused reporters may be left off the sequences shown.
